Drawing on article PMC3805583, this text covers binding for one substance.

Amino acid sequences for entries named in this document (tags omitted).
UniProt Q96B97: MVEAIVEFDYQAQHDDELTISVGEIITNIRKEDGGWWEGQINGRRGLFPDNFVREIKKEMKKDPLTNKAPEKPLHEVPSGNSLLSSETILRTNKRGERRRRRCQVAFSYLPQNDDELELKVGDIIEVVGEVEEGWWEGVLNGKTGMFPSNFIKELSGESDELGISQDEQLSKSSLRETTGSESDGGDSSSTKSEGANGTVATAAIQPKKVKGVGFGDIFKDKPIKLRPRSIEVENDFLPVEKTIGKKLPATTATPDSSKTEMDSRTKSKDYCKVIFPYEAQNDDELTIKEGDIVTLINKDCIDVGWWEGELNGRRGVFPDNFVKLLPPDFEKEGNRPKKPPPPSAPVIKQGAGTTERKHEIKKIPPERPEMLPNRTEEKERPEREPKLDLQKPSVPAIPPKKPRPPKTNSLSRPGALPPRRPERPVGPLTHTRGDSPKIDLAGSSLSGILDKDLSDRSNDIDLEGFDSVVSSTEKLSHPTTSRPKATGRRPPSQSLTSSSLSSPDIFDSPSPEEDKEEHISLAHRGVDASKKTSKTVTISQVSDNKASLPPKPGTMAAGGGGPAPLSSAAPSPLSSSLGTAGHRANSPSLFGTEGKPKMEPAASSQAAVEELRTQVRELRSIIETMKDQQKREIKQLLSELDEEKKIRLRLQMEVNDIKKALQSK

These are yes or no findings as the source states them, for the method shown. In cells and extracts the contact can be indirect. A yes stands for co-enrichment or nearness to the bait. Other partners may have been found. Where a sequence is shown, tags or fusion partners need not be part of it.

For the test, the target named is T1, C-terminally GST-tagged murine LOX-PP-WT (1-162 aa) (mouse) (UniProt P28301).
T1 sequence: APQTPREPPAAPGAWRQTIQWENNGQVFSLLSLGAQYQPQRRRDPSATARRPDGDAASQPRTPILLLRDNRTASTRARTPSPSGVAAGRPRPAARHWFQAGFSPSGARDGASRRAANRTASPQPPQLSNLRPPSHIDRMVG
Nature of the test: affinity purification with mass spectrometry; GST or LOX-PP-GST expressed in ZR-75 cells for 24 h; lysis in Buffer A (25 mM HEPES-KOH pH 7.2, 150 mM KCl, 2 mM EDTA, 1% Triton X-100); Glutathione-Sepharose 4B 2 h at 4°C; SDS-PAGE, silver stain, ~85 kDa bands analysed by LC/MS/MS.

With “endogenous Cbl-interacting protein of 85-kDa (CIN85) (from UniProt Q96B97 1-665)”, the binding entry is listed as “binds”.
